Data on 2 substances can be found in paper PMC10502413.

The chains behind the UniProt entries cited, without tags or fusion partners. Where a name states a change or a piece, a line headed by the entry shows the natural chain unless it says otherwise. A line that says so, or that is headed by a name, gives the form on record, which may keep a tag or linker.
Flag-tagged NRF1 (1–296) (Q14494, form named): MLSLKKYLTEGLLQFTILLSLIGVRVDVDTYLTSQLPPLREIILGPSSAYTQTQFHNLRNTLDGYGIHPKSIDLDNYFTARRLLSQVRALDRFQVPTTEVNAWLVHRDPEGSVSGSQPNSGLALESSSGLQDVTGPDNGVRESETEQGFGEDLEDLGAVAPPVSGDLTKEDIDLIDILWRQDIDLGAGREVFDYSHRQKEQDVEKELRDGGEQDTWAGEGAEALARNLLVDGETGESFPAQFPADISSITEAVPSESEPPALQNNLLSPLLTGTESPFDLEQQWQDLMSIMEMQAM
UniProt Q5TDH0: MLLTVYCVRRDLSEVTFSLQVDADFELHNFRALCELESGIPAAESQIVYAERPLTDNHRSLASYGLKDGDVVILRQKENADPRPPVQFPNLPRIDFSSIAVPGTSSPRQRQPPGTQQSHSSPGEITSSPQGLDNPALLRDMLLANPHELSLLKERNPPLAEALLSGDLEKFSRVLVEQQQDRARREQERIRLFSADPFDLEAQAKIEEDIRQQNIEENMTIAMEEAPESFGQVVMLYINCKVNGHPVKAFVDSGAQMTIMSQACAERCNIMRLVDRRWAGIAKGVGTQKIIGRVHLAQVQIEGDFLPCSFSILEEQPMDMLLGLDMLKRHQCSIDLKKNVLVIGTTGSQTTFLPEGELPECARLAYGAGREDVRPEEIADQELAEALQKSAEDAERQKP
UniProt P54725: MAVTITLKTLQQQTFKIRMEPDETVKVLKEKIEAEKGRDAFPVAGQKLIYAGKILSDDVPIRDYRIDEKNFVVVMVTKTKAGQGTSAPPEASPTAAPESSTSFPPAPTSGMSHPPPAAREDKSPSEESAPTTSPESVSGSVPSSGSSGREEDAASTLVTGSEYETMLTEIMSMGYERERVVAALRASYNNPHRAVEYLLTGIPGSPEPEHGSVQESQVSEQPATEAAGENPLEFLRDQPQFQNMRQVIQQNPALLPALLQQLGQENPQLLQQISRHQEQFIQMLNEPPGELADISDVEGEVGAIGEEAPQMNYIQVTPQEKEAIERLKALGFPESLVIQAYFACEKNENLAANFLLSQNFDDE
UniProt P54727: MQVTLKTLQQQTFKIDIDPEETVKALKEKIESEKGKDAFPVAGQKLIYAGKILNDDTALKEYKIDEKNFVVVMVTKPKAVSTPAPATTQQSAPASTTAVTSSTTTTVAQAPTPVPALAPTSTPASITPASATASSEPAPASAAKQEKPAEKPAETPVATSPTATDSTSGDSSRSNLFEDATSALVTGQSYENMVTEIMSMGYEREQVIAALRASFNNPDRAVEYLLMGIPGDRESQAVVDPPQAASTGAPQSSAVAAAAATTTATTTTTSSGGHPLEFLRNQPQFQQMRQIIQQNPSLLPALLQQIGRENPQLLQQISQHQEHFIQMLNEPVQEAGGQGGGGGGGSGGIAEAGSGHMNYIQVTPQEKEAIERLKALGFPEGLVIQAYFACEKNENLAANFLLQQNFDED

These are yes or no findings as the source states them, for the method shown. In cells and extracts the contact can be indirect. Some results given as binding are weak or reduced against the parent protein; the word gives no strength.

Assay [1] has as its target Flag-tagged NRF1 (1–296) (UniProt Q14494). Put plainly: co-IP; Flag-tagged NRF1 constructs expressed in wild-type (sgLuci) and DDI2 knock-out (sgDDI2) HEK293T; anti-FLAG M2 agarose, 2 h at 4°C; lysis buffer 0.2% NP-40, 20 mM Tris-HCl pH 7.4, 150 mM NaCl; Rad23A and Rad23B seen by Western blot. On the technique in general: In western blotting, separated proteins are transferred to a membrane and probed.

The target in assay [2] is flag-tagged wild-type DDI2 (human) (UniProt Q5TDH0). Put plainly: co-IP; flag-tagged DDI2 wild-type or D252A expressed in DDI2-deficient HEK293T; anti-FLAG M2 agarose, 2 h at 4°C; lysis buffer 0.2% NP-40, 20 mM Tris-HCl pH 7.4, 150 mM NaCl; Rad23B seen by Western blot.
Assay [3] has as its target flag-tagged DDI2 proteolytically inactive (D252A) (human) (UniProt Q5TDH0). Described as above.

For the substance Rad23A (from UniProt P54725 1-363), the binding result in assay [1] was “binds”.
In the case of Rad23B (from UniProt P54727 1-409), the binding entry in assay [1], in assay [2] and in assay [3] was “binds” throughout.
